# Assay results

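Malaria parasite (P. falciparum) lines kept in red blood cells; parasite DNA is measured by SYBR Green fluorescence after lysis, 72 h after compound addition. Each compound was titrated across a series from about 0.000037 to 29 µM. The number is the fitted AC50, the concentration giving a half-maximal change in signal; a lower value means higher potency, whether the curve shows a decrease or an increase. Calls follow the curve class and fit quality: every row here is inconclusive, covering signal-raising curves and weak, poorly fitted, partial or highest-dose-only inhibition curves.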

Values are in nM. Every entry below has the call inconclusive. Only part of the assay is shown, chiefly results filed as inconclusive. A potency from a partial, single-point or poor curve is only a rough figure. Some entries filed as inconclusive have a full curve.

| SMILES | setting | Potency (nM) | curve as filed |
|---|---|---|---|
| `CCCC(C(=O)OCCN(CC)CC)(c1ccccc1)c1ccccc1` | CP266 | 19011 | inhibitor, single point |
| `CCCC(C(=O)OCCN(CC)CC)(c1ccccc1)c1ccccc1` | P94_40 | 10000 | inhibitor, single point |
| `CCCC(C(=O)OCCN(CC)CC)(c1ccccc1)c1ccccc1` | CP194 | 13459 | inhibitor, single point |
| `CCCC(C(=O)OCCN(CC)CC)(c1ccccc1)c1ccccc1` | SC27B | 11220 | inhibitor, single point |
| `CCCC(C(=O)OCCN(CC)CC)(c1ccccc1)c1ccccc1` | DFO2036 | 11220 | inhibitor, single point |
| `CCCC(C(=O)OCCN(CC)CC)(c1ccccc1)c1ccccc1` | CP252 | 15848 | inhibitor, single point |
| `CCCC(C(=O)OCCN(CC)CC)(c1ccccc1)c1ccccc1` | CP201 | 19011 | inhibitor, single point |
| `CCCC(C(=O)OCCN(CC)CC)(c1ccccc1)c1ccccc1` | CP238 | 11220 | inhibitor, single point |
| `CCCC(C(=O)OCCN(CC)CC)(c1ccccc1)c1ccccc1` | CP262 | 19011 | inhibitor, single point |
| `CCCC(C(=O)OCCN(CC)CC)(c1ccccc1)c1ccccc1` | TAB165 | 17782 | inhibitor, single point |
| `CCCC(C(=O)OCCN(CC)CC)(c1ccccc1)c1ccccc1` | N140 | 10000 | inhibitor, single point |
| `CO[C@H]1[C@H](O[C@H]2O[C@@H](C)[C@@H](O[C@@H]3C[C@](C)(O)[C@H](OC(=O)CC(C)C)[C@H](C)O3)[C@@H](N(C)C)[C@@H]2O)[C@@H](CC=O)C[C@@H](C)[C@@H](O)/C=C\C=C/C[C@@H](C)OC(=O)C[C@H]1OC(C)=O` | CP238 | 1122 | inhibitor, partial curve |
| `CO[C@H]1[C@H](O[C@H]2O[C@@H](C)[C@@H](O[C@@H]3C[C@](C)(O)[C@H](OC(=O)CC(C)C)[C@H](C)O3)[C@@H](N(C)C)[C@@H]2O)[C@@H](CC=O)C[C@@H](C)[C@@H](O)/C=C\C=C/C[C@@H](C)OC(=O)C[C@H]1OC(C)=O` | CP268 | 2869 | inhibitor, partial curve |
| `CO[C@H]1[C@H](O[C@H]2O[C@@H](C)[C@@H](O[C@@H]3C[C@](C)(O)[C@H](OC(=O)CC(C)C)[C@H](C)O3)[C@@H](N(C)C)[C@@H]2O)[C@@H](CC=O)C[C@@H](C)[C@@H](O)/C=C\C=C/C[C@@H](C)OC(=O)C[C@H]1OC(C)=O` | CP237 | 1412 | inhibitor, full curve |
| `CO[C@H]1[C@H](O[C@H]2O[C@@H](C)[C@@H](O[C@@H]3C[C@](C)(O)[C@H](OC(=O)CC(C)C)[C@H](C)O3)[C@@H](N(C)C)[C@@H]2O)[C@@H](CC=O)C[C@@H](C)[C@@H](O)/C=C\C=C/C[C@@H](C)OC(=O)C[C@H]1OC(C)=O` | CP211 | 2869 | inhibitor, partial curve |
| `CO[C@H]1[C@H](O[C@H]2O[C@@H](C)[C@@H](O[C@@H]3C[C@](C)(O)[C@H](OC(=O)CC(C)C)[C@H](C)O3)[C@@H](N(C)C)[C@@H]2O)[C@@H](CC=O)C[C@@H](C)[C@@H](O)/C=C\C=C/C[C@@H](C)OC(=O)C[C@H]1OC(C)=O` | CP201 | 5103 | inhibitor, partial curve |
| `CO[C@H]1[C@H](O[C@H]2O[C@@H](C)[C@@H](O[C@@H]3C[C@](C)(O)[C@H](OC(=O)CC(C)C)[C@H](C)O3)[C@@H](N(C)C)[C@@H]2O)[C@@H](CC=O)C[C@@H](C)[C@@H](O)/C=C\C=C/C[C@@H](C)OC(=O)C[C@H]1OC(C)=O` | PC15 | 5623 | inhibitor, single point |
| `CO[C@H]1[C@H](O[C@H]2O[C@@H](C)[C@@H](O[C@@H]3C[C@](C)(O)[C@H](OC(=O)CC(C)C)[C@H](C)O3)[C@@H](N(C)C)[C@@H]2O)[C@@H](CC=O)C[C@@H](C)[C@@H](O)/C=C\C=C/C[C@@H](C)OC(=O)C[C@H]1OC(C)=O` | 7G8 | 3981 | inhibitor, partial curve |
| `CO[C@H]1[C@H](O[C@H]2O[C@@H](C)[C@@H](O[C@@H]3C[C@](C)(O)[C@H](OC(=O)CC(C)C)[C@H](C)O3)[C@@H](N(C)C)[C@@H]2O)[C@@H](CC=O)C[C@@H](C)[C@@H](O)/C=C\C=C/C[C@@H](C)OC(=O)C[C@H]1OC(C)=O` | P93_24 | 1995 | inhibitor, partial curve |
| `CO[C@H]1[C@H](O[C@H]2O[C@@H](C)[C@@H](O[C@@H]3C[C@](C)(O)[C@H](OC(=O)CC(C)C)[C@H](C)O3)[C@@H](N(C)C)[C@@H]2O)[C@@H](CC=O)C[C@@H](C)[C@@H](O)/C=C\C=C/C[C@@H](C)OC(=O)C[C@H]1OC(C)=O` | CP325 | 1811 | inhibitor, partial curve |
| `CO[C@H]1[C@H](O[C@H]2O[C@@H](C)[C@@H](O[C@@H]3C[C@](C)(O)[C@H](OC(=O)CC(C)C)[C@H](C)O3)[C@@H](N(C)C)[C@@H]2O)[C@@H](CC=O)C[C@@H](C)[C@@H](O)/C=C\C=C/C[C@@H](C)OC(=O)C[C@H]1OC(C)=O` | ECU | 2512 | inhibitor, partial curve |
| `CO[C@H]1[C@H](O[C@H]2O[C@@H](C)[C@@H](O[C@@H]3C[C@](C)(O)[C@H](OC(=O)CC(C)C)[C@H](C)O3)[C@@H](N(C)C)[C@@H]2O)[C@@H](CC=O)C[C@@H](C)[C@@H](O)/C=C\C=C/C[C@@H](C)OC(=O)C[C@H]1OC(C)=O` | ICS | 1585 | inhibitor, partial curve |
| `CO[C@H]1[C@H](O[C@H]2O[C@@H](C)[C@@H](O[C@@H]3C[C@](C)(O)[C@H](OC(=O)CC(C)C)[C@H](C)O3)[C@@H](N(C)C)[C@@H]2O)[C@@H](CC=O)C[C@@H](C)[C@@H](O)/C=C\C=C/C[C@@H](C)OC(=O)C[C@H]1OC(C)=O` | CP266 | 2558 | inhibitor, partial curve |

From PubChem BioAssay record AID504749 (NCATS, 2011).